# Data published in the supplement of paper PMC3334620.
# In all, about 33,000 sequences were measured (“E-score (-0.5 to 0.5)”: median about -0.0014, highest 2% from about 0.25 on). This is one part of the list.
# Target: T1, Cad1 (UniProt P24813)
# T1 sequence: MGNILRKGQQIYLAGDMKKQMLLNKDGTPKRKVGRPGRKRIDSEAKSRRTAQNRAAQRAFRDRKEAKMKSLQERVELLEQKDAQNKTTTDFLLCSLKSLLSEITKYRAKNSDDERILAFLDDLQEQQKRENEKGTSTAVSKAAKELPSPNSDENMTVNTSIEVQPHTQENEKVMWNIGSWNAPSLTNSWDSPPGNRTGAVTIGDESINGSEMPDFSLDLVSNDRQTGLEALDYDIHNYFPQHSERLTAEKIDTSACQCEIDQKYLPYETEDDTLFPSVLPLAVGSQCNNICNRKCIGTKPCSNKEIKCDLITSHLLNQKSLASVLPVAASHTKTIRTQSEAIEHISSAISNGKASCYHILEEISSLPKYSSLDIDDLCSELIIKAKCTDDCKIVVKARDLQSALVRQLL
# Experiment: PBM E-score (8-mer binding enrichment) (E-score (-0.5 to 0.5)); higher = stronger / more preferred TF binding
# Settings: protein concentration: 100 nM; construct: GST-full length
# Protocol: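 Universal 'all 10-mer' protein binding microarrays (Agilent AMADID 015681) probed with GST-tagged S. cerevisiae TFs (full-length or DBD) made by in vitro transcription/translation (PURExpress), about 100-200 nM. Bound TF was detected with fluorescent anti-GST. Each ungapped 8-mer (which stands for itself and its reverse complement) is scored by the PBM enrichment score (E-score), a modified Wilcoxon-Mann-Whitney statistic from -0.5 to +0.5, computed with the Universal PBM Analysis Suite. Scale: above 0.35 generally sequence-specific binding.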
row,Sequence,PBM E-score
1,AAGGCGGT,-0.0195
2,AGGCTAGG,-0.274
3,TTGCACAA,0.0972
4,CGATCATC,-0.0744
5,TACGCGAA,-0.00479
6,CATGATGA,0.141
7,GGATCCAA,0.121
8,CCGCTAAA,-0.0442
9,CCCAGCCC,-0.0263
10,AAGTATCG,0.0301
11,ACCGGTGC,-0.188
12,AATAGTTC,0.16
13,AATAACTC,0.15
14,GGAACGTA,0.00276
15,CGCGGAAG,-0.00425
16,GCATTGCC,-0.0184
17,CCTGGCGA,-0.0952
18,AGGGCCCC,-0.346
19,TGAGCGCA,0.0445
20,CGCCCAGA,-0.102
21,ACCGTTTG,0.0346
22,AGGGGTCC,-0.276
23,TAGCTCAA,-0.0608
24,AAAGTTGC,0.0259
25,TACCGTCA,-0.0238

row,Sequence,PBM E-score
1,ATTGTATA,0.215
2,TGGCAACA,0.0346
3,CGGAGGAA,-0.0518
4,AGGTCTTG,-0.0382
5,AAGGGGGA,-0.306
6,CCTTAGGA,0.0161
7,TATTTCAA,0.309
8,CAACAGGC,-0.0199
9,AATCCAGT,0.118
10,CGCTGGTA,0.0577
11,AACCACCT,0.0185
12,AAGCTTGG,-0.125
13,ACGCCATG,0.0731
14,ACCCAAGT,-0.0625
15,AACTAGTC,-0.14
16,ATACTGGG,-0.256
17,AACGATCG,0.153
18,AGGAGGAA,-0.218
19,CTCTTCCC,-0.22
20,CAGGAACC,-0.0733
21,AGCGTGAC,0.0299
22,ATATCCAT,0.0512
23,AGATCTAT,-0.0031
24,AATTGGTC,0.0715
25,CACGTCAA,-0.0595

row,Sequence,PBM E-score
1,ATTTCCAC,0.12
2,GAAACTTC,-0.00251
3,ATCCGTCC,-0.171
4,CGGGTACC,-0.136
5,AGTGCTGA,-0.0168
6,ACGGCGGC,-0.0474
7,CCCTTACC,-0.215
8,ACGAACCG,0.0904
9,AGCTCTTG,-0.197
10,ATTAAAGG,0.0901
11,ACGCTAGG,-0.265
12,CTTTCGTA,0.0939
13,GACGTACC,-0.0757
14,AGCCTAAT,-0.0781
15,AATATTAA,0.281
16,ATATATGA,0.172
17,CGGTCCAG,-0.103
18,AACAACGC,0.102
19,ACGTCAAA,0.0749
20,CACCCTTA,-0.0112
21,GTATGATA,0.23
22,GCCAGGCA,-0.11
23,TAAGAGCA,0.108
24,CAATAAAG,0.132
25,ACGCGCAT,0.105

row,Sequence,PBM E-score
1,CCCCTGGA,-0.272
2,GCGAATCA,0.227
3,GCTTAGAC,-0.238
4,ATGAGTGG,-0.201
5,CCAAGGCC,-0.144
6,TCCTGGCA,-0.0466
7,ATGTTTGA,-0.106
8,GCGCTCCC,0.0441
9,CGCCGGGA,-0.126
10,CATGTATA,0.22
11,CACGAACA,0.249
12,ATAACGTA,0.164
13,ATGCTGTG,0.117
14,GCCGGGCC,-0.145
15,ACGAATAA,-0.0279
16,GGGCCTTA,-0.0621
17,GACCAGAA,-0.0367
18,ACCAACCG,0.0729
19,GCGAGGCC,-0.113
20,GTACGAAC,0.249
21,GCAGAACA,0.0554
22,AGGTCTCG,-0.2
23,GTTTCGAA,0.0707
24,AGCCCCCA,-0.369
25,TCCTTGCA,-0.179

# Copied from the entries so far (four entries):
row,Sequence,PBM E-score
21,AGCGTGAC,0.0299
22,ATATCCAT,0.0512
23,AGATCTAT,-0.0031
24,AATTGGTC,0.0715

# The list goes on:

row,Sequence,PBM E-score
1,ATGTCAGA,-0.0566
2,AGATATCC,0.128
3,AAATGATT,0.261
4,AGGGACAA,-0.0582
5,GTAAAGGA,-0.0509
6,CACTTGAG,-0.16
7,ACCCCCTA,-0.408
8,CTACTGGA,-0.0843
9,TCCGTGAA,0.0445
10,ACGATCGC,0.144
11,AGCGAACA,0.195
12,AGTGTAAC,-0.122
13,GAAGAATA,0.0544
14,GCCACACA,0.0268
15,CACGCACA,0.0737
16,CGGGGACG,-0.168
17,ACTGTGTC,0.0874
18,AATTAGGG,-0.172
19,ACGAACAA,0.184
20,CTGGCTAA,-0.119
21,CAATGGTA,0.0824
22,AGGGAGCC,-0.297
23,ACAATCAC,0.00448
24,ATTCGAAC,0.153
25,GCGCACGC,-0.0892

row,Sequence,PBM E-score
1,GCAGGCGC,0.0926
2,AAGGCCCC,-0.278
3,TGGATGAA,-0.00755
4,CGCCCCCG,-0.333
5,ACTTACGC,0.0274
6,GACTCTGA,-0.0113
7,GTCGGGGA,-0.0306
8,AGTTGAAC,-0.0384
9,AGTGTTTC,0.155
10,TGCTCACA,0.0213
11,ATACTCGG,0.139
12,AAGAATAC,0.012
13,GACAATTA,0.101
14,ACGAGGCG,0.147
15,AGATAGCT,-0.0292
16,CCGAGGAG,-0.284
17,CGGAGTAG,0.00793
18,AAAACTGT,0.0985
19,AAACTTAC,0.0226
20,AGCTAAAC,-0.209
21,CGTCCTCC,-0.12
22,CGTTATGA,0.00642
23,ATCTAGTC,-0.0127
24,ATGGGATC,-0.166
25,CCCCACCA,0.153

# Reprinted at random: two entries already listed
row,Sequence,PBM E-score
20,CGCCCAGA,-0.102
15,CGCGGAAG,-0.00425

# The results go on.

row,Sequence,PBM E-score
1,GACGCTAA,-0.0633
2,GCACTGCA,0.0382
3,AGAGTCGA,-0.134
4,CTGACGAA,0.209
5,AGCAAACC,0.15
6,ACGGTCCC,-0.169
7,GCCGGCTA,-0.00817
8,CGGTCACG,-0.131
9,CAGATAAG,-0.0871
10,ACAGGGCA,0.0797
11,GTCTTATA,-0.0332
12,GGTATTCA,0.172
13,AGCACTCC,0.0892
14,CACCTGTC,-0.116
15,CCCGCTGC,0.0423
16,CGCGCTGC,0.0168
17,CTGGAACA,0.099
18,GCGCTGCA,0.124
19,GTCCCGCA,-0.165
20,GACTCACA,0.0214
21,CTGAACAG,0.0772
22,AGTTGATA,0.19
